Laboratory results: patent US20190309014 (published 2019)

Experiment: general procedure: solution-phase peptide synthesis; EDAC.HCl/HOBt, N-methylmorpholine
Settings: acetate

Substance	crude HPLC purity (coupling step) [%]	step yield (coupling step) [%]	step yield (late stage modification step) [%]	crude HPLC purity (late stage modification step) [%]	other results
Fmoc-Thia-Ser(O-tBu)-D-Tic-Oic-OAll	85	87.33	–	–	–
Fmoc-Hyp-Gly-Thia-Ser(O-tBu)-D-Tic-Oic-Arg(Pbf)-O-tBu	89	85.23	–	–	–
Boc-D-Arg(Pbf)-Arg(Pbf)-Pro-Hyp-Gly-Thia-Ser(O-tBu)-D-Tic-Oic-Arg(Pbf)-O-tBu	–	50	–	–	final HPLC purity (coupling step): 92%
Icatibant acetate	–	–	35	–	final HPLC purity (late stage modification step): 99.8%
Fmoc-Thia-Ser(O-tBu)-D-Tic-Oic-OH	–	–	83.85	85.0	–
H-Hyp-Gly-Thia-Ser(O-tBu)-D-Tic-Oic-Arg(Pbf)-O-tBu	–	–	72.86	76	–
Fmoc-Thia-Ser(O-tBu)-D-Tic-Oic-Arg(Pbf)-O-tBu	86.0	96.95	–	–	–
H-Thia-Ser(O-tBu)-D-Tic-Oic-Arg(Pbf)-OtBu	–	–	87.33	82	–
